For two substances, binding results are on record in PMC11809421.

Sequences of proteins named here, by UniProt entry; tags and fusion partners are left off. Residues count along the entry.
UniProt P36222, residues 22-383: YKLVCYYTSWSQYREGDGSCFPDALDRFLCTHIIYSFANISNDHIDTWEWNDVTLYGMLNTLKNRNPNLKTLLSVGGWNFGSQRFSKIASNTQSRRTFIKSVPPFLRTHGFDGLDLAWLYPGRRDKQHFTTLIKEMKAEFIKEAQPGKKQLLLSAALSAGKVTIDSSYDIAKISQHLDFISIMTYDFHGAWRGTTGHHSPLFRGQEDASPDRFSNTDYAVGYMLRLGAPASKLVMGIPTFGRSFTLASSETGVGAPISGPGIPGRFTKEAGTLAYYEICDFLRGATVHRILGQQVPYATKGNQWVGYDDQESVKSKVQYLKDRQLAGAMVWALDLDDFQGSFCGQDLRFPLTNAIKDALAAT
UniProt Q61362, residues 30-389: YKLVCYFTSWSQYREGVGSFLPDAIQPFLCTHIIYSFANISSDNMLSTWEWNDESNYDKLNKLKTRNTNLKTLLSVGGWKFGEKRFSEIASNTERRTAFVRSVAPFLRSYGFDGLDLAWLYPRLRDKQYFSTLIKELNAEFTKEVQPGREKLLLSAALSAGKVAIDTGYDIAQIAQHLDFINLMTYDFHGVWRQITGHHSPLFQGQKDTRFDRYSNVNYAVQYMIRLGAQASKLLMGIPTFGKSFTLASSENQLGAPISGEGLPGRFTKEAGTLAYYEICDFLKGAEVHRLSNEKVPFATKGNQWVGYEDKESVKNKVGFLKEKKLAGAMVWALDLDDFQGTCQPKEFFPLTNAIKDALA

Assay [1] has as its target T1, recombinant interleukin‐17 receptor A (human) (human) (UniProt Q96F46).
T1 sequence: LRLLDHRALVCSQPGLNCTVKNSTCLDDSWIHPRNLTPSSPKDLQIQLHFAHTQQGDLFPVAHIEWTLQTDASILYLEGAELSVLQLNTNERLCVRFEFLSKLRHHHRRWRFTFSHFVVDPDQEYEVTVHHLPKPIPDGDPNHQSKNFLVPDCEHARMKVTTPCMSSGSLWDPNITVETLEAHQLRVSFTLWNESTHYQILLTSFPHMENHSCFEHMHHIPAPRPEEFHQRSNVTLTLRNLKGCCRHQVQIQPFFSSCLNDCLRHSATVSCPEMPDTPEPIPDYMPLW
Description: SPR; Biacore 8K; IL-17RA recombinant protein immobilised on Series S Sensor Chip CM5; Chi3L1 (15.625-1000 nmol/L) in running buffer injected as analyte; both purified. (In SPR one partner is held on a chip, and binding of the other changes the refractive index at the surface.)

Assay [2] concerns the target T2, interleukin‐17 receptor A, endogenous in dermal fibroblasts of SSc patients (human (endogenous in SSc dermal fibroblasts)) (UniProt Q96F46).
T2 sequence: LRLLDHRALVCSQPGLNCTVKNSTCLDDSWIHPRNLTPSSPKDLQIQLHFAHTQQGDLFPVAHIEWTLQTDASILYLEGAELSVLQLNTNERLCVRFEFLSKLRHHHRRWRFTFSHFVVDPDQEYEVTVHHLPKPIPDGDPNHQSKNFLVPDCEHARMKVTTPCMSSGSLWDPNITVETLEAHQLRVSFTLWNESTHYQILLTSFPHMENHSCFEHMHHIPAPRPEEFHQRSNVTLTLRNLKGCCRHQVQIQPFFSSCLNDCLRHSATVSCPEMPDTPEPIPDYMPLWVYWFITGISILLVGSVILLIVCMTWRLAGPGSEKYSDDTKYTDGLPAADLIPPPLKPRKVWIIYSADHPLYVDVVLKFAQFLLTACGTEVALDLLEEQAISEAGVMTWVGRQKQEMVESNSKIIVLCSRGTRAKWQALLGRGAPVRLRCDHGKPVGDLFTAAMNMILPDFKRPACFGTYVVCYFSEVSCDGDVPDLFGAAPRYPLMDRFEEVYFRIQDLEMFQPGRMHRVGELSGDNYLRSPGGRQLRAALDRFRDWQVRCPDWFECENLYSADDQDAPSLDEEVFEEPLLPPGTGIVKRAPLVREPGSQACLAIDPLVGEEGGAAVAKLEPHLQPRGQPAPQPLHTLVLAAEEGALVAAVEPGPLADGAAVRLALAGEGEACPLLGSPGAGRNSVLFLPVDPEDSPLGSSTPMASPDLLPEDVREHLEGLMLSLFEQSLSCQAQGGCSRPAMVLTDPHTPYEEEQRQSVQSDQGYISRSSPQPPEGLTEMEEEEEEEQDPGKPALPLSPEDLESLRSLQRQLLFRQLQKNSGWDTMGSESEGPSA
The assay can be described thus: co-IP; SSc dermal fibroblasts treated with human rChi3L1 for 10 min, rinsed, lysed (Tris pH 7.4, 150 mM NaCl, 1 mM EDTA, 1% NP40, 5% glycerol); Pierce Co-IP kit; IP with anti-IL-17RA and blot for Chi3L1, and vice versa; only the binder purified.

Assay [3] concerns the target T1, recombinant interleukin‐17 receptor A (human) (human). The assay can be described thus: co-IP; cell-free, in tube: 5 ug human rChi3L1 and 5 ug human rIL-17RA mixed in lysis buffer, shaken at 4 °C overnight, then Co-IP (Pierce Co-IP kit); both purified.
Assay [4] concerns the target T3, interleukin‐17 receptor A, endogenous in dermal fibroblasts of BLM‐SSc mice (mouse (endogenous in dermal fibroblasts of BLM-SSc mice)) (UniProt Q60943).
T3 sequence: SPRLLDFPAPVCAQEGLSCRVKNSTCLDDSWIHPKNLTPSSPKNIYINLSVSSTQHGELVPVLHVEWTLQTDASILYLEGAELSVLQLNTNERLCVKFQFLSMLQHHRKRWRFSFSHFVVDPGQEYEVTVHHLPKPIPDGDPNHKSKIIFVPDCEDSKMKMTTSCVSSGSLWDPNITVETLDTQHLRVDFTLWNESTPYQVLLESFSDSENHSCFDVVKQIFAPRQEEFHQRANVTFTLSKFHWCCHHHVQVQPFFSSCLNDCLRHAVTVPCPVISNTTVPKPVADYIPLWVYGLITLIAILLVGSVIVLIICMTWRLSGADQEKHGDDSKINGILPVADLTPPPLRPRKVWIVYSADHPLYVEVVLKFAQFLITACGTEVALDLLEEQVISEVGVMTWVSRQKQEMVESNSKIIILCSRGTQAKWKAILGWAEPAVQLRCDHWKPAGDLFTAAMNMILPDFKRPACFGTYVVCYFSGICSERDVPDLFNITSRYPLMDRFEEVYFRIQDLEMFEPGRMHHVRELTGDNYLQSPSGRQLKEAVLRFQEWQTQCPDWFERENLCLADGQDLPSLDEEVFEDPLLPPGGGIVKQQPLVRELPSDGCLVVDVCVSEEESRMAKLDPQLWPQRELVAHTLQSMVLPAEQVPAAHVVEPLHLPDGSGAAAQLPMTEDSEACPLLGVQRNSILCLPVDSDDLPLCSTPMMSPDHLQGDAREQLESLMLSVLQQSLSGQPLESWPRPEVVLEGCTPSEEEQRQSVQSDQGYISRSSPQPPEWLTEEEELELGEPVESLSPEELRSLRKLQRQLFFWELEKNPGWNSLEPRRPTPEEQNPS
Description: co-IP; dermal fibroblasts of BLM-SSc mice treated with mouse rChi3L1 for 10 min, rinsed, lysed; Pierce Co-IP kit; only the binder purified.

Results are given in words; binding and its absence hold for the method and conditions named. For some of these results: In cells and extracts the contact can be indirect. Some entries that bind do so weakly or less than the wild type.

In the case of “recombinant chitinase 3‐like 1 (human) (from UniProt P36222 22-383) (ligand)”, the binding entry in assay [1], in assay [2] and in assay [3] was “binds” throughout.
For the substance “recombinant chitinase 3‐like 1 (mouse) (from UniProt Q61362 30-389) (ligand)”, the binding entry in assay [4] is “binds”.
